The record followed here is the supplement of paper PMC12819154, “High-throughput peptide-centric local stability assay extends protein–ligand identification to membrane proteins, tissues and bacteria” (Nature Structural & Molecular Biology, 2025).

The chains behind the UniProt entries cited, without tags or fusion partners. Where a name states a change or a piece, a line headed by the entry shows the natural chain unless it says otherwise.
UniProt Q9BV94: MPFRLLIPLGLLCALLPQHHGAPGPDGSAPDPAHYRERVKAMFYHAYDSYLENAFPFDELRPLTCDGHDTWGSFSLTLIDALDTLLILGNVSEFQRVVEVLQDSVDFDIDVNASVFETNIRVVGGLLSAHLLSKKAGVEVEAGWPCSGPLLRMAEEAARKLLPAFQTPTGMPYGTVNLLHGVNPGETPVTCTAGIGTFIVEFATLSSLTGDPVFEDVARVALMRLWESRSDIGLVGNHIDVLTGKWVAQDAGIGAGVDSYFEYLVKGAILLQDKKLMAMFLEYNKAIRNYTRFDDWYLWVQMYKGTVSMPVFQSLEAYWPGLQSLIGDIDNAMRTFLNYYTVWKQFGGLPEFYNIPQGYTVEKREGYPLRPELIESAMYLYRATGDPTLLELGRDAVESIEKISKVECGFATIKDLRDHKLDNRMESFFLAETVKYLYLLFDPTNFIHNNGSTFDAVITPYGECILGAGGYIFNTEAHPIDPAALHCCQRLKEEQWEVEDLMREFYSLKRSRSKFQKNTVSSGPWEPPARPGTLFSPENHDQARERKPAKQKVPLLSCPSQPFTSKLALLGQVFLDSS
UniProt Q9BWG6: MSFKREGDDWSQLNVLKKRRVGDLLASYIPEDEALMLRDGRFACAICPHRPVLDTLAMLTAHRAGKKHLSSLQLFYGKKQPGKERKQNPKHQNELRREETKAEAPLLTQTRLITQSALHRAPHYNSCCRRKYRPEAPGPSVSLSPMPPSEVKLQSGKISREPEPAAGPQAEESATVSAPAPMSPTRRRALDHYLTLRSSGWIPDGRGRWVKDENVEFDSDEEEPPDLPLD
UniProt Q9BVL4, whole entry: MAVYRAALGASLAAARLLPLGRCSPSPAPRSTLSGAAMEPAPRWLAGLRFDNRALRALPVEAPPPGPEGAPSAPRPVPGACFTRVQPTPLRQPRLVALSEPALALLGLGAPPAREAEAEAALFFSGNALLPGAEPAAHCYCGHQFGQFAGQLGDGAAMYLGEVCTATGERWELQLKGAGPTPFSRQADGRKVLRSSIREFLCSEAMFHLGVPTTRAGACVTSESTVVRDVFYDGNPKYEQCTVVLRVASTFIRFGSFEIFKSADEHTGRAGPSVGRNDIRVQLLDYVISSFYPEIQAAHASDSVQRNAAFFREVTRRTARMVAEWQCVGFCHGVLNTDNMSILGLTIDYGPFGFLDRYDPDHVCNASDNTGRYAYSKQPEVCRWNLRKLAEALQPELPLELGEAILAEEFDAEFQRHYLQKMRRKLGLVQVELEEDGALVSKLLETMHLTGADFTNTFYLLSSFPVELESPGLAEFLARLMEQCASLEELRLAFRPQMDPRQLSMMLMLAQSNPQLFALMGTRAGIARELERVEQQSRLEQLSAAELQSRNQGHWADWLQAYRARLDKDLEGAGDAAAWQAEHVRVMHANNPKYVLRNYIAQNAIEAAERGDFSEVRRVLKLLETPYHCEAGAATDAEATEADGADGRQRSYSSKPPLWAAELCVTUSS
UniProt Q9BYB4: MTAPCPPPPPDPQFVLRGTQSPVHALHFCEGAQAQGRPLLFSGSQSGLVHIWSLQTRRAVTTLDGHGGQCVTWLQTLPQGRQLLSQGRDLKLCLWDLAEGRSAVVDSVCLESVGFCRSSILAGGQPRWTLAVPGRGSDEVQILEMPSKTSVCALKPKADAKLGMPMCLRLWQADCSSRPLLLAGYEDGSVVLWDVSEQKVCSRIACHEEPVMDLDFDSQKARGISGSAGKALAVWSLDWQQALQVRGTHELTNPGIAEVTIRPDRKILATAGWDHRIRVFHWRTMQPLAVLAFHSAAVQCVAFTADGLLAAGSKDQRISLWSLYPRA
UniProt Q9H0L4: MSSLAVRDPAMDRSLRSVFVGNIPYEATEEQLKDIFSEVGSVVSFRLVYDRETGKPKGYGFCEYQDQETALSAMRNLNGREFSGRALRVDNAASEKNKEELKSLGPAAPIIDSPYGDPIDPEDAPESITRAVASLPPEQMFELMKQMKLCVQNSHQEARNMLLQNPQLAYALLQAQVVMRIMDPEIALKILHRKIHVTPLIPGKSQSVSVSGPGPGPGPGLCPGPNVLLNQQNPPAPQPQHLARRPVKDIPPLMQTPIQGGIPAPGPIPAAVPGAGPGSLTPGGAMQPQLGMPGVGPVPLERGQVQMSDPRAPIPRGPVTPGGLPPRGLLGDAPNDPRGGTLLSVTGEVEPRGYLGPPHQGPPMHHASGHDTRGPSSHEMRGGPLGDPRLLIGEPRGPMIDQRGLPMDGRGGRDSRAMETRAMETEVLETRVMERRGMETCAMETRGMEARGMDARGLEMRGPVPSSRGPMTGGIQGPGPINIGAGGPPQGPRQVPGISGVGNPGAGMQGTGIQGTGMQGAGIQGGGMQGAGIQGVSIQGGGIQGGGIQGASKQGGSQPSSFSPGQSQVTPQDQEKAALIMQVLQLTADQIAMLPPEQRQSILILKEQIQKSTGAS
UniProt Q9H0R4: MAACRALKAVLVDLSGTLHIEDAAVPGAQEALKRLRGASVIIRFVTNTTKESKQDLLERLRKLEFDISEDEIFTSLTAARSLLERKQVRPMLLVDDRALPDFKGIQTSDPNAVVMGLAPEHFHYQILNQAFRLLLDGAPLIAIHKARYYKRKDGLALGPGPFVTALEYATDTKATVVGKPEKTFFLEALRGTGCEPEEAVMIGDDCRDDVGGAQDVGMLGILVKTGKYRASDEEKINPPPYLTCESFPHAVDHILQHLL
UniProt Q9H079: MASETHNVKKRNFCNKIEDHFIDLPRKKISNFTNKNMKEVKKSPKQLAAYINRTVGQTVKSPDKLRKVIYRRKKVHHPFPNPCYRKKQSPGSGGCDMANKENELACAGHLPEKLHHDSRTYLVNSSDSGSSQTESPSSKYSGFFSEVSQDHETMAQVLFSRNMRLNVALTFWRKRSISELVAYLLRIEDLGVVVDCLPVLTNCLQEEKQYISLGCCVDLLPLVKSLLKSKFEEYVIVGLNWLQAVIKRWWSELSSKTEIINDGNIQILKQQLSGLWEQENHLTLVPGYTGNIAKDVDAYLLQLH
UniProt Q9H160: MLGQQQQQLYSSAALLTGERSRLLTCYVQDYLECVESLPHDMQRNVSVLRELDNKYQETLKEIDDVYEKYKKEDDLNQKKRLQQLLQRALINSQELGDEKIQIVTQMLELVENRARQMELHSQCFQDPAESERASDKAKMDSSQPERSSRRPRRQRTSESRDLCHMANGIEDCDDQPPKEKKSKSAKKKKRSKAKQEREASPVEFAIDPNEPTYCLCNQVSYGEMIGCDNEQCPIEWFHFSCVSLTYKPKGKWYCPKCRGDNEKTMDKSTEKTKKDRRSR
UniProt Q9BX95: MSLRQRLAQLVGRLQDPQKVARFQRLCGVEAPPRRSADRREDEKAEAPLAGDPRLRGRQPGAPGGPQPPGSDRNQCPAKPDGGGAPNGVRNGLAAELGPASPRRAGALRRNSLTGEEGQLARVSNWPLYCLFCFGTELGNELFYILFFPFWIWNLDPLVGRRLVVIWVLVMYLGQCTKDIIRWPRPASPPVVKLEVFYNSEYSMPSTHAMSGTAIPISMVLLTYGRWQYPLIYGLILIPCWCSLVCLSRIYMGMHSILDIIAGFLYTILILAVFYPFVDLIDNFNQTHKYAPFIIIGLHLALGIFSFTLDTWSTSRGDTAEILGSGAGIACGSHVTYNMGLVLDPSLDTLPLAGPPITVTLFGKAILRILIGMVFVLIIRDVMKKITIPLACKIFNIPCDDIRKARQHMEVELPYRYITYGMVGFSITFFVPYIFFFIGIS
UniProt Q9GZT9: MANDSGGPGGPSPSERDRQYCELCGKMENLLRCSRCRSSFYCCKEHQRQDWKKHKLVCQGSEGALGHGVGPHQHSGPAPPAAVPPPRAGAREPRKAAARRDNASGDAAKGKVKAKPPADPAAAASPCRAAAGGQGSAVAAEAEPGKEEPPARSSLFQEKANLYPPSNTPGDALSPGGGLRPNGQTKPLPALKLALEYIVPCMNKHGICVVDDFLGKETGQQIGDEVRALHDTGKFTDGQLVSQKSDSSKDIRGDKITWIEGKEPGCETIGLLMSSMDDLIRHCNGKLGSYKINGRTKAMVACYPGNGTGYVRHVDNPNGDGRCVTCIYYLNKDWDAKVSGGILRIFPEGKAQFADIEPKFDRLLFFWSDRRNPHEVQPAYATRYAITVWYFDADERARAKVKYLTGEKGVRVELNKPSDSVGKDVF
UniProt Q9BYV9: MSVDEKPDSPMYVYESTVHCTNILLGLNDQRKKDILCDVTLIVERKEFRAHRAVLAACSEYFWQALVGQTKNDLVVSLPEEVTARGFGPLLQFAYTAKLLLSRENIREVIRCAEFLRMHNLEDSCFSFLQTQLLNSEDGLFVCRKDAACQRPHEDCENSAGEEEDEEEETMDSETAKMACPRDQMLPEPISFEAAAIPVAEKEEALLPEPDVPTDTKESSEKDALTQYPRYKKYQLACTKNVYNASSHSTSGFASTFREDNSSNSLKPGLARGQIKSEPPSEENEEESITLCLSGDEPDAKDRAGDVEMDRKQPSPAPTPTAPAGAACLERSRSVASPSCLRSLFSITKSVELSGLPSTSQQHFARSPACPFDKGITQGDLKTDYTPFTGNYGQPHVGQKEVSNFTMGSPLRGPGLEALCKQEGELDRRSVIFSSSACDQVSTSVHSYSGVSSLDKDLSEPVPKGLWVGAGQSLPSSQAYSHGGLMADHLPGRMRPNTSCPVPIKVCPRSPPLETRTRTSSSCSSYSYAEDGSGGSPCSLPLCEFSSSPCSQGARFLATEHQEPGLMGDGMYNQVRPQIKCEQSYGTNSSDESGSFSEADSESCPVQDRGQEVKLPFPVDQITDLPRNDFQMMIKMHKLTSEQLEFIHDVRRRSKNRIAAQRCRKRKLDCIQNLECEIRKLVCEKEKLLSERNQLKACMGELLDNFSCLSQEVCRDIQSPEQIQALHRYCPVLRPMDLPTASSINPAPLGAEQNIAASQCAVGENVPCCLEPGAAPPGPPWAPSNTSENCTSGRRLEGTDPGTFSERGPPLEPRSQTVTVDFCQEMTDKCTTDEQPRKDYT
UniProt Q9GZZ9, whole entry: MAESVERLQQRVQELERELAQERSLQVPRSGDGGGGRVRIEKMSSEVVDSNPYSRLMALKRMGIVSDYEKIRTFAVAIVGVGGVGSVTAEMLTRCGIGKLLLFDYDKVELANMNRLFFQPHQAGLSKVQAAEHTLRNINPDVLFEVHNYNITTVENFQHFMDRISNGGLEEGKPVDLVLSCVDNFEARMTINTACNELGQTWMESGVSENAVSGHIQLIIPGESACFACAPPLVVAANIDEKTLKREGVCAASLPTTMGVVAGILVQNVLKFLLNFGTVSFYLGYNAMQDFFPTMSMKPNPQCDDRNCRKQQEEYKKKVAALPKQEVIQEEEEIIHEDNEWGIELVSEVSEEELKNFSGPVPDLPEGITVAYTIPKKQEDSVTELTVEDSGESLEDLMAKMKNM
UniProt Q9C0D4: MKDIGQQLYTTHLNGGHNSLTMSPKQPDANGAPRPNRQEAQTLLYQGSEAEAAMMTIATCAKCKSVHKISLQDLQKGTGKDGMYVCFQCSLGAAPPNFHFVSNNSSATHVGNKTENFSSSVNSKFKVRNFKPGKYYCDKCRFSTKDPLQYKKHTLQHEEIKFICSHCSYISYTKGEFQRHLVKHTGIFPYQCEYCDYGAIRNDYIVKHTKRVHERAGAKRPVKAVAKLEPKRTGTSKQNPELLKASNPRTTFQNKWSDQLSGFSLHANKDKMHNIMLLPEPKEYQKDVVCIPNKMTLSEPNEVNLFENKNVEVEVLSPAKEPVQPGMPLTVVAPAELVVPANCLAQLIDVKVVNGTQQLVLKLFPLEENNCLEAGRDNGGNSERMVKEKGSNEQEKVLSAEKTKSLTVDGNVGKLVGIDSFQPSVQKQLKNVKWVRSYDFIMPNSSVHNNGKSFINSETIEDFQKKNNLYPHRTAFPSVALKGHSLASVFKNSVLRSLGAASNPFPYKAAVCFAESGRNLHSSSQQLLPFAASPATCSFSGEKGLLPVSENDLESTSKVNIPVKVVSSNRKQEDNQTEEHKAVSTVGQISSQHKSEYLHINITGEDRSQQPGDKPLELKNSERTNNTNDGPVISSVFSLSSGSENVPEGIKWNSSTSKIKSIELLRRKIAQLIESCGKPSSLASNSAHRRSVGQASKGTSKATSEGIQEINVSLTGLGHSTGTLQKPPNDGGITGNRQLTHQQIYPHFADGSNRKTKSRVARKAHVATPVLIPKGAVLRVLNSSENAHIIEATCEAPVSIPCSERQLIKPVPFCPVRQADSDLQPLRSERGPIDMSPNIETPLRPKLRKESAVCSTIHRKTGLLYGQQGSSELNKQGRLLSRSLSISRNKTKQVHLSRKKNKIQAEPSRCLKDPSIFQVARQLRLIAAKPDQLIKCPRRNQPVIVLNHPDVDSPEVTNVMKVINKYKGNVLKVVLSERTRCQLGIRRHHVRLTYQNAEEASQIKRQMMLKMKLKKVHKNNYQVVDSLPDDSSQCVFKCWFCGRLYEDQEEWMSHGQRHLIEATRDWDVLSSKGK

Compound in this assay: Cc1nc(Nc2ncc(C(=O)Nc3c(C)cccc3Cl)s2)cc(N2CCN(CCO)CC2)n1 [dasatinib]
The assay is described as follows: log2 fold change of tryptic peptide abundance, ligand vs vehicle (limited proteolysis) (log2 ratio); higher = more trypsin-susceptible (destabilized). As to conditions: ligand concentration: 5 uM; sample: K562 cleared lysate.

This is one part of the list. Small differences around the control level are noise.

In the case of “MRPL18 (peptide sequence: NLELLSVAR, peptide start residue: 55) (UniProt Q9H0U6)”, the log2 fold change is 0.145.
For the target “EDEM2 (peptide sequence: ATGDPTLLELGR, peptide start residue: 383) (UniProt Q9BV94)”, the log2 fold change is -0.0359.
In the case of “SCNM1 (peptide sequence: APHYNSCCRR, peptide start residue: 121) (UniProt Q9BWG6)” it was -0.152; in that of “UniProt Q9BVL4 (peptide sequence: VMHANNPK, peptide start residue: 586)”, -0.31.
Regarding “UniProt Q9GZU8 (peptide sequence: SSESGNSVK, peptide start residue: 161)”, the log2 fold change turned out to be 0.175.
As to “GNB1L (peptide sequence: LCLWDLAEGR, peptide start residue: 92) (UniProt Q9BYB4)”, the log2 fold change was -0.193.
For the target “CSTF2T (peptide sequence: LVYDRETGKPK, peptide start residue: 47) (UniProt Q9H0L4)”, the log2 fold change is 0.0674.
In the case of “UniProt Q9BUT9 (peptide sequence: CRQPAPPTSQPPR, peptide start residue: 34)” it was 0.0759.
Turning to “HDHD2 (peptide sequence: TFFLEALR, peptide start residue: 183) (UniProt Q9H0R4)”, the log2 fold change is -0.309.
Consider “C20orf27 (peptide sequence: YEITFTLPPVHR, peptide start residue: 64) (UniProt Q9GZN8)”, for which the log2 fold change was found to be 0.299.
As to “MRPL32 (peptide sequence: NNIDVCPECGHLK, peptide start residue: 105) (UniProt Q9BYC8)”, the log2 fold change was 0.307.
“KATNBL1 (peptide sequence: DVDAYLLQLH, peptide start residue: 295) (UniProt Q9H079)”: the log2 fold change is 0.349.
With “ING2 (peptide sequence: DLCHMANGIEDCDDQPPKEK, peptide start residue: 162) (UniProt Q9H160)”, the log2 fold change was determined as 0.462.
As to “UniProt Q9BWT7 (peptide sequence: ALLEVQLQR, peptide start residue: 445)”, the log2 fold change was 0.0197.
On to “KIFC1 (peptide sequence: RGTLSGAPAPPTRHDFSFDR, peptide start residue: 357) (UniProt Q9BW19)”, for which the log2 fold change was -0.286.
As for “SGPP1 (peptide sequence: NGLAAELGPASPR, peptide start residue: 91) (UniProt Q9BX95)”, the log2 fold change was -0.277.
Regarding “EGLN1 (peptide sequence: DRQYCELCGKMENLLR, peptide start residue: 17) (UniProt Q9GZT9)”, the log2 fold change was -0.793.
For the target “BACH2 (peptide sequence: SVELSGLPSTSQQHFAR, peptide start residue: 350) (UniProt Q9BYV9)”, the log2 fold change was -0.369.
For the target “TRAF4 (peptide sequence: HVEESVKPHLAMMCALVSR, peptide start residue: 269) (UniProt Q9BUZ4)”, the log2 fold change worked out at 0.111.
In the case of “UBA5 (peptide sequence: MGIVSDYEK, peptide start residue: 62) (UniProt Q9GZZ9)”, the log2 fold change was -0.0614.
In the case of “EIF5A2 (peptide sequence: KYEDICPSTHNMDVPNIKR, peptide start residue: 68) (UniProt Q9GZV4)”, the log2 fold change was 0.0676.
Take “LSM14B (peptide sequence: SGSSGTPYLGSK, peptide start residue: 2) (UniProt Q9BX40)”: the log2 fold change amounted to 0.391.
As for “GTPBP4 (peptide sequence: KREDSAPPSSVAR, peptide start residue: 554) (UniProt Q9BZE4)”, the log2 fold change was 0.159.
Regarding “AP1M1 (peptide sequence: HNNLYLVATSKK, peptide start residue: 62) (UniProt Q9BXS5)”, the log2 fold change was -0.448.
As for “UniProt Q9C0D4 (peptide sequence: GPIDMSPNIETPLRPK, peptide start residue: 831)”, the figure is -0.741; as for “REPIN1 (peptide sequence: IHTGEKPYPCKECGR, peptide start residue: 285) (UniProt Q9BWE0)”, -0.588; as for “UniProt Q9H190 (peptide sequence: VDQAIQAQVR, peptide start residue: 13)”, 0.353.
“CRNKL1 (peptide sequence: LVESDAEAEAVREVYER, peptide start residue: 500) (UniProt Q9BZJ0)”: the log2 fold change worked out at 0.342.
